Test results from the supplement of paper PMC12067093, “Discovery and optimisation of a covalent ligand for TRIM25 and its application to targeted protein ubiquitination” (Chemical Science, 2025).
The other results are listed elsewhere or left out.

Amino acid sequences for entries named in this document (tags omitted). A change or cut given only in a name is not applied to a line headed by its entry.
UniProt Q4KMQ2: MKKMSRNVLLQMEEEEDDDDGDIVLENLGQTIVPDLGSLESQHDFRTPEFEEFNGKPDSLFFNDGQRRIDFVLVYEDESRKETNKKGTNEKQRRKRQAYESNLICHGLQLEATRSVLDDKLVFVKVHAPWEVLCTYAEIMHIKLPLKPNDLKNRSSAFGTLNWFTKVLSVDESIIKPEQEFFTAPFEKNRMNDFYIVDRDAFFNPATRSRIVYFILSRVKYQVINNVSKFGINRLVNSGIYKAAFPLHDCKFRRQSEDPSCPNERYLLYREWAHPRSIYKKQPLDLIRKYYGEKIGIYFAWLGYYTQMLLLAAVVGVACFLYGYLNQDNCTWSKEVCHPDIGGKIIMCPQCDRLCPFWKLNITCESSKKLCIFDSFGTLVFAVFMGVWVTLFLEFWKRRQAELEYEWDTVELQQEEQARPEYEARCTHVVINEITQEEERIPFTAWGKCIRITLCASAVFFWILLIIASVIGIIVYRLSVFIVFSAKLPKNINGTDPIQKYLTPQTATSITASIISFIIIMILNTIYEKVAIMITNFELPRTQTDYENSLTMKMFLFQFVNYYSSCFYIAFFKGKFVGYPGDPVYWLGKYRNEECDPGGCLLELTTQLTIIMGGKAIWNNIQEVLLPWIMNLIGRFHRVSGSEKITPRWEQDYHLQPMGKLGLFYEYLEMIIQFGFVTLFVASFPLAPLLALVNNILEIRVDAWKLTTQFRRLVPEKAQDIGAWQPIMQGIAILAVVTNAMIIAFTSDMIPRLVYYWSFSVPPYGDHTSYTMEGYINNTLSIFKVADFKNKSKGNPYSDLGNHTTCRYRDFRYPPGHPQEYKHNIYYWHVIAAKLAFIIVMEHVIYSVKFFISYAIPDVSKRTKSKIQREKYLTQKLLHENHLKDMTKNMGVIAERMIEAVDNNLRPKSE
UniProt Q86XL3: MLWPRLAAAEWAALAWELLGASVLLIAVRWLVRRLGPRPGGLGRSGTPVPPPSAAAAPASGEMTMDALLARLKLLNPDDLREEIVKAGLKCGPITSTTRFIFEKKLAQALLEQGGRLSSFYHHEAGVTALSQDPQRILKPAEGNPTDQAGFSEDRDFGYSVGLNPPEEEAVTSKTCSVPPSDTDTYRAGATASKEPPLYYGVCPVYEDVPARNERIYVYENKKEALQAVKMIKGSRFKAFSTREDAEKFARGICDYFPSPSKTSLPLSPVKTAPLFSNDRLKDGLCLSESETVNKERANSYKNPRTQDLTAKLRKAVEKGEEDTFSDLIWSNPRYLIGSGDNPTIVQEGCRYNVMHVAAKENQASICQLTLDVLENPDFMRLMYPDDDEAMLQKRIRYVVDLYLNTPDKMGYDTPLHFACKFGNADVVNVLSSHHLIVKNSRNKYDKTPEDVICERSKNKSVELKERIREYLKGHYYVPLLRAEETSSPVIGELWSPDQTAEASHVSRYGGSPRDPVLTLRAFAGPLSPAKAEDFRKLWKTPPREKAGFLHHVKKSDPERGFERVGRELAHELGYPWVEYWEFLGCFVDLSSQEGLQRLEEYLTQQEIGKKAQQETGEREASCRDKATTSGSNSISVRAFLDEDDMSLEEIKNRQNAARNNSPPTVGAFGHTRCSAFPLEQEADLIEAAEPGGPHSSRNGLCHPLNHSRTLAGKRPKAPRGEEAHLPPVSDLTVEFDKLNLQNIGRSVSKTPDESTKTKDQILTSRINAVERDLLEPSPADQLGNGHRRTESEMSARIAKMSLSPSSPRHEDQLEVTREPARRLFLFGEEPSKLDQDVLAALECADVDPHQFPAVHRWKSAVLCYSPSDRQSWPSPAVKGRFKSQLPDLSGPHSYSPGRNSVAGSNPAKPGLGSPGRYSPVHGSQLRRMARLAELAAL
UniProt Q53RE8: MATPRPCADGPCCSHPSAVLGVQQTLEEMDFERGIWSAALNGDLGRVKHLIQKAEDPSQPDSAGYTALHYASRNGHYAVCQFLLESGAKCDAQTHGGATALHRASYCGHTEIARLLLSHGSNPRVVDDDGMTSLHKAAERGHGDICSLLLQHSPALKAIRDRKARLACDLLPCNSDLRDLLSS
UniProt Q8IWZ3: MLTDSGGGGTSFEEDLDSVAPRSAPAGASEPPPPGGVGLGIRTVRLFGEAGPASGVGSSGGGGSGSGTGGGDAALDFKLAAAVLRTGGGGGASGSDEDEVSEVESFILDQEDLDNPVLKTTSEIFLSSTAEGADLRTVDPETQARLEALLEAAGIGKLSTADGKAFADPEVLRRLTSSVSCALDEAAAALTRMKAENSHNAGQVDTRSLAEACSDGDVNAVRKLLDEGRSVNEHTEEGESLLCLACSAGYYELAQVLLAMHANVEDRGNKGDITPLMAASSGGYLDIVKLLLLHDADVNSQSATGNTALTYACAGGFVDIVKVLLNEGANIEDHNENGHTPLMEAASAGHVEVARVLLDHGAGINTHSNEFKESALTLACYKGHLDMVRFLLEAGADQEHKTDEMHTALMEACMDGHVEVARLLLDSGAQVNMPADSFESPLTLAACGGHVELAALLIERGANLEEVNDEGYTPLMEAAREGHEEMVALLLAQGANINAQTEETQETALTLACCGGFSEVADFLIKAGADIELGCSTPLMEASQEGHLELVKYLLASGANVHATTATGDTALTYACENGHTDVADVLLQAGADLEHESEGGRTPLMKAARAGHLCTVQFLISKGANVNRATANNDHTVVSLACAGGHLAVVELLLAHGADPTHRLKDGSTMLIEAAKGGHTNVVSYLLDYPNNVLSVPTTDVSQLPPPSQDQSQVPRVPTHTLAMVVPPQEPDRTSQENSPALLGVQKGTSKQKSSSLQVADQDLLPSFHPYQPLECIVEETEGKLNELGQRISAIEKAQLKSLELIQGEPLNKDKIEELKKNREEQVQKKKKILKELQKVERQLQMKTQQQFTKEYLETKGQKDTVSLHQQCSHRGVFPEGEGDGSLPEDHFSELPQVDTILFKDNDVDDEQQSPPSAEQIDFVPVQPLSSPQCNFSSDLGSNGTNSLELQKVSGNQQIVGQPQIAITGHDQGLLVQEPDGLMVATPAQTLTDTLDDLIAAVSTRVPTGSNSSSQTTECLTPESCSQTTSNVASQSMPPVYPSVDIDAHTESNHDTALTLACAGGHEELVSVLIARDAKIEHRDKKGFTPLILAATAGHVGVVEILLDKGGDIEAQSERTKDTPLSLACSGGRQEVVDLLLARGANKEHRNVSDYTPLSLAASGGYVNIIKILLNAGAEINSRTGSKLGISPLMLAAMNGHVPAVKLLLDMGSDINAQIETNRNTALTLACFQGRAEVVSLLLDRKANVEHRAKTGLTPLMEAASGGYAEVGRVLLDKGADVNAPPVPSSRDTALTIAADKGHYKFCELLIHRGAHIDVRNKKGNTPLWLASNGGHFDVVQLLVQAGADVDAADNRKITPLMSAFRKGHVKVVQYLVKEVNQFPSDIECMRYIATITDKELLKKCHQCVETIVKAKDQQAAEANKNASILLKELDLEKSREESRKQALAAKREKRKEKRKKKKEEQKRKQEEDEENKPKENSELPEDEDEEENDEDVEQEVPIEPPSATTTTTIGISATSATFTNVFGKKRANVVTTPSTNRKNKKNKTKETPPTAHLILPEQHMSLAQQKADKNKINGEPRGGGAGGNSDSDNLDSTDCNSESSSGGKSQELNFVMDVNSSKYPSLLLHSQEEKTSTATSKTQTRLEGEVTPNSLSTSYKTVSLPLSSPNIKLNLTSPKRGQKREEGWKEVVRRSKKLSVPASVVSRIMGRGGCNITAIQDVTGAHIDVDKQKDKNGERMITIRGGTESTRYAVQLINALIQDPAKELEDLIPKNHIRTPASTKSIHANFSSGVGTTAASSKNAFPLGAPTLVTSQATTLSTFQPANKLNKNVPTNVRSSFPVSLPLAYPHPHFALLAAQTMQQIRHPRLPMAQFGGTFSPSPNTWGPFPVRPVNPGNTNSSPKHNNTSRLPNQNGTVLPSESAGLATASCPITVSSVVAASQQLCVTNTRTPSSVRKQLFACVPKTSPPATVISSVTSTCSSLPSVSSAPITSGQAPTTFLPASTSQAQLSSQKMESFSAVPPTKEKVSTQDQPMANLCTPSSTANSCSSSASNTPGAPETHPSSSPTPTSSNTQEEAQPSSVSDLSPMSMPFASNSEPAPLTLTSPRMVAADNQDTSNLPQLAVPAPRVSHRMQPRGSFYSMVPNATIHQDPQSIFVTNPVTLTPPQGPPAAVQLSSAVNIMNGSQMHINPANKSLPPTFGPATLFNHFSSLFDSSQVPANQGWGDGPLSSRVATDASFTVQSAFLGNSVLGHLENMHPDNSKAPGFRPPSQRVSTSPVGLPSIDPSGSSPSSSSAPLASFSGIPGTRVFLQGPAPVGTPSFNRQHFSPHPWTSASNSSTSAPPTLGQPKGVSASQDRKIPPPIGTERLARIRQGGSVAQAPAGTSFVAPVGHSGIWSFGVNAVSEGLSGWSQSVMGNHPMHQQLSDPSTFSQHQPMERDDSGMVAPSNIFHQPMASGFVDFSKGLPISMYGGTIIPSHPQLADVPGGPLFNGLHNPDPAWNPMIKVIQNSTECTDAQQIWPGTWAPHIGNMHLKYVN
UniProt O14727: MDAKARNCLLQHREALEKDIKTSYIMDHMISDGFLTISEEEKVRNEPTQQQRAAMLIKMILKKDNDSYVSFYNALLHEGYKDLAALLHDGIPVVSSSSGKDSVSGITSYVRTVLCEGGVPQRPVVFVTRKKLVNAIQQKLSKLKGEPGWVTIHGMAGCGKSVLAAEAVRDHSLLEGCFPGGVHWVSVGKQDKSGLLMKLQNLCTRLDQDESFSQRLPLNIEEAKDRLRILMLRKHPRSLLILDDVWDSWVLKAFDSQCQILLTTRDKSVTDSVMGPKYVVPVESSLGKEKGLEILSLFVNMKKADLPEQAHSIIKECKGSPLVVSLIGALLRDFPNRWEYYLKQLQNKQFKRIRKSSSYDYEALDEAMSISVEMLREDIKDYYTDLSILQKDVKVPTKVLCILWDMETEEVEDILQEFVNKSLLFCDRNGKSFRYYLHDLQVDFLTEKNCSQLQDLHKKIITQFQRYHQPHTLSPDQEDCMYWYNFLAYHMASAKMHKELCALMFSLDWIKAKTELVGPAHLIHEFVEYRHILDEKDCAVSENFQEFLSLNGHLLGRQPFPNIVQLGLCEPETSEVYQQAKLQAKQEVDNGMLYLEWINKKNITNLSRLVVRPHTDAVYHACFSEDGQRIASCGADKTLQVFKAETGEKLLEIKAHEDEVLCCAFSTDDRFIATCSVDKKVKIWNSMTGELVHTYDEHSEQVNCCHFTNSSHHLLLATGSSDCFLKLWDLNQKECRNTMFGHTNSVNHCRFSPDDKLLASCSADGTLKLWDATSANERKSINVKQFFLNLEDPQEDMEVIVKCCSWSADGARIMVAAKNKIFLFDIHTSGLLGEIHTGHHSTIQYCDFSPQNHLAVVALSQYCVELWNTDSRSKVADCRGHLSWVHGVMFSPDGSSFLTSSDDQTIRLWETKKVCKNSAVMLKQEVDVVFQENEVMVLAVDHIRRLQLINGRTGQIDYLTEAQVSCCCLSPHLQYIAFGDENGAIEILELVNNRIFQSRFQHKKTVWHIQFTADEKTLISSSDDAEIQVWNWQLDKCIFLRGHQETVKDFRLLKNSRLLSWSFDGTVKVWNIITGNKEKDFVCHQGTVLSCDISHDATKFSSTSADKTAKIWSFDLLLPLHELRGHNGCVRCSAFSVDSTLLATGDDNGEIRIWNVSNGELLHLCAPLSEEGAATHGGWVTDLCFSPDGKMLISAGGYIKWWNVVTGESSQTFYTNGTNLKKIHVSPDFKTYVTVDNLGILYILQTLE
UniProt P08133: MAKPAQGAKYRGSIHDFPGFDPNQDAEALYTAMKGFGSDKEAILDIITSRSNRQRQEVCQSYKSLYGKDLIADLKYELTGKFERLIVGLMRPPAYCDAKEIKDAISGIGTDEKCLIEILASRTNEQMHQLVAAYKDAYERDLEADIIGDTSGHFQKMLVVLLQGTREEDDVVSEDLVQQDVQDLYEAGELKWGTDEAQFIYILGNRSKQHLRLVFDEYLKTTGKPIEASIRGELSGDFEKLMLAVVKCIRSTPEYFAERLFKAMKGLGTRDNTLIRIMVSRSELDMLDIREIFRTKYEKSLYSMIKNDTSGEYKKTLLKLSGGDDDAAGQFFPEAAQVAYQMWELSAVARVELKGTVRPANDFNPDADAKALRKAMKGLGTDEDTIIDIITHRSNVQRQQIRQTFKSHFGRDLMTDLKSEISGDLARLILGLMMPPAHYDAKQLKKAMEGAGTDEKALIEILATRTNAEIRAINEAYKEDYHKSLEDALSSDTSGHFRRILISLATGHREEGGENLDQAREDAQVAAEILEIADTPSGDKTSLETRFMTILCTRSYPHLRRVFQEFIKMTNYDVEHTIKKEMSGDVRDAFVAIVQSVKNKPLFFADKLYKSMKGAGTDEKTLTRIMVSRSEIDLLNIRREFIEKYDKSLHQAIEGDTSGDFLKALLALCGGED

Compound: Cc1cc(ccc1-c1ccccc1)C(=O)N1CCCN(CC1)C(=O)CCl [compound 10]
Assay: probe-labelled cysteine peptide fold change vs DMSO (competition) (log2 fold change); higher = less target engagement (more negative = stronger competition)
Settings: THP-1, incubation time: 4 h
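Further: competitive profiling in live THP-1 cells: cysteine peptides tagged with an iodoacetamide desthiobiotin (IA-DTB) probe, intensity after compound treatment relative to DMSO-treated cells.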

| Target | probe-labelled cysteine peptide fold change (10 µM) | probe-labelled cysteine peptide fold change (50 µM) |
| --- | --- | --- |
| AP1M1_Q9BXS5_241_FHQCVR (UniProt Q9BXS5) | -0.0973 | 0.247 |
| AP3S1_Q92572_47_RDENVCNFLEGGLLIGGSDNK (UniProt Q92572) | -0.0668 | 0.142 |
| AP5M1_Q9H0R1_444_ILDYTLTGCYADQHSVQVFASGKPK (UniProt Q9H0R1) | -0.0225 | 0.148 |
| ANO6_Q4KMQ2_105_QAYESNLICHGLQLEATR (UniProt Q4KMQ2) | -0.181 | -0.421 |
| ANKRD11_Q6UB99_1712_EVLPASPRPDQSRPTGVPTPTSVLSCPSYEEVMHTPR (UniProt Q6UB99) | 0.0549 | 0.219 |
| ANKLE2_Q86XL3_176_TCSVPPSDTDTYR (UniProt Q86XL3) | 0.0562 | 0.00564 |
| ANKRD39_Q53RE8_107_ASYCGHTEIAR (UniProt Q53RE8) | 0.075 | -0.305 |
| AP1G1_O43747_160_AALCAVHVIR (UniProt O43747) | 0.0436 | 0.00344 |
| AP2A2_O94973_932_LCELLSAQF (UniProt O94973) | 0.018 | -0.00051 |
| AP2M1_Q96CW1_337_IPTPLNTSGVQVICMK (UniProt Q96CW1) | -0.0259 | -0.0798 |
| ANKRD27_Q96NW4_899_IMELLQVVPSCVASLDDVAETDRK (UniProt Q96NW4) | -0.178 | -0.611 |
| ANLN_Q9NQW6_978_CQVNSSVEER (UniProt Q9NQW6) | 0.153 | 0.239 |
| ANKRD27_Q96NW4_39_VAQIHGIVLVPCK (UniProt Q96NW4) | -0.103 | -0.193 |
| ANKHD1_Q8IWZ3_2518_VIQNSTECTDAQQIWPGTWAPHIGNMHLK (UniProt Q8IWZ3) | 0.0222 | 0.581 |
| APAF1_O14727_258_AFDSQCQILLTTR (UniProt O14727) | 0.213 | 0.0876 |
| ANKHD1_Q8IWZ3_213_SLAEACSDGDVNAVRK (UniProt Q8IWZ3) | 0.0471 | 0.0108 |
| ANKHD1_Q8IWZ3_873_DTVSLHQQCSHR (UniProt Q8IWZ3) | 0.0706 | -0.169 |
| ANXA7_P20073_413_TILQCALNR (UniProt P20073) | 0.206 | 0.459 |
| APOBR_Q0VD83_257_ACESTR (UniProt Q0VD83) | 0.411 | 0.403 |

| Target | probe-labelled cysteine peptide fold change (10 µM) | probe-labelled cysteine peptide fold change (50 µM) |
| --- | --- | --- |
| ANXA6_P08133_552_FMTILCTR (UniProt P08133) | 0.0107 | 0.0333 |
| ANKMY2_Q8IV38_205_VMDLICEK (UniProt Q8IV38) | -0.173 | -0.106 |
| ANXA2_P07355_262_EVKGDLENAFLNLVQCIQNK (UniProt P07355) | -0.0705 | -0.366 |
| ANKRD16_Q6P6B7_43_EELQAAGGCPGPAGDTLLHCAAR (UniProt Q6P6B7) | 0.053 | -0.0254 |
| APAF1_O14727_450_NCSQLQDLHK (UniProt O14727) | -0.131 | 0.0472 |
| ANO6_Q4KMQ2_250_AAFPLHDCK (UniProt Q4KMQ2) | -0.187 | -0.184 |
| ANKRD44_Q8N8A2_704_EANVDTVDILGCTALHR (UniProt Q8N8A2) | -0.0426 | -0.232 |
| AP1B1_Q10567_930_CRAPEVSQHVYQAYETILK (UniProt Q10567) | 0.104 | -0.118 |
| APOBEC3G_Q9HC16_356_HCWDTFVDHQGCPFQPWDGLDEHSQDLSGR (UniProt Q9HC16) | -0.032 | -0.101 |
| ANXA6_P08133_114_CLIEILASR (UniProt P08133) | 0.0273 | 0.0524 |
| ANKLE2_Q86XL3_367_ENQASICQLTLDVLENPDFMR (UniProt Q86XL3) | 0.261 | 0.342 |
| ANKRD17_O75179_1158_DTPLSLACSGGR (UniProt O75179) | 0.0355 | 0.317 |
| APAF1_O14727_662_AHEDEVLCCAFSTDDR (UniProt O14727) | 0.218 | 0.309 |
| AP3D1_O14617_348_DLILQCLDDKDESIR (UniProt O14617) | -0.112 | 0.0234 |
| ANKMY2_Q8IV38_341_MVIYCDQTCQK (UniProt Q8IV38) | -0.0709 | 0.00724 |
| ANKRD50_Q9ULJ7_941_DIVELLFSHGADVNCK (UniProt Q9ULJ7) | 0.0799 | 0.113 |
| AP2A2_O94973_353_YLALESMCTLASSEFSHEAVK (UniProt O94973) | 0.0402 | 0.0718 |
| AP2A1_O95782_397_AADLLYAMCDR (UniProt O95782) | 0.0796 | -0.00803 |
| APBB1IP_Q7Z5R6_381_YKAPTDYCFVLK (UniProt Q7Z5R6) | 0.0859 | -0.339 |
